Structures can show the parent of a compound that is named as a salt. Some entries share one result that the patent states for a list of compounds. At least one structure is not confirmed: it was looked up by name or label, or the drawing left a doubt.
Biological target: T1, histamine H3 receptor (Homo sapiens, UniProt Q9Y5N1)
T1 construct: expressed in transfected cells; host or cells: CHO K1 cells carrying pSwitch, transfected with pGeneH3 and induced with mifepristone; clone 3H3; membrane preparation
Test: Histamine H3 functional antagonist assay ([35S]GTPγS SPA on membranes)
Type: biochemical
Details: membranes of CHO K1 clone 3H3 expressing human histamine H3, histamine 0.3 μM, guanosine 5'[γ35-S]thiotriphosphate 0.38 nM
Method: A membrane preparation containing histamine H3 receptors may be prepared in accordance with the following procedures:
Ligated DNA was transformed into competent DH5α E. coli host bacterial cells and plated onto Luria Broth (LB) agar containing Zeocin™ (an antibiotic which allows the selection of cells expressing the sh ble gene which is present on pGene and pSwitch) at 50 μg ml^−1. Colonies containing the religated plasmid were identified by restriction analysis. DNA for transfection into mammalian cells was prepared from 250 ml cultures of the host bacterium containing the pGeneH3 plasmid and isolated using a DNA preparation kit (Qiagen Midi-Prep) as per manufacturers guidelines (Qiagen).
CHO K1 cells previously transfected with the pSwitch regulatory plasmid (InVitrogen) were seeded at 2×10e6 cells per T75 flask in Complete Medium, containing Hams F12 (GIBCOBRL, Life Technologies) medium supplemented with 10% v/v dialysed foetal bovine serum, L-glutamine, and hygromycin (100 μg ml^−1), 24 hours prior to use. Plasmid DNA was transfected into the cells using Lipofectamine plus according to the manufacturers guidelines (InVitrogen). 48 hours post transfection cells were placed into complete medium supplemented with 500 μg ml^−1 Zeocin™.
10-14 days post selection 10 nM Mifepristone (InVitrogen), was added to the culture medium to induce the expression of the receptor.
Approximately 1×10e7 cells were examined for receptor expression by staining with a rabbit polyclonal antibody, 4a, raised against the N-terminal domain of the histamine H3 receptor, incubated on ice for 60 minutes, followed by two washes in sorting medium.
Following two further washes with Sorting Medium, cells were filtered through a 50 μm Filcon™ (BD Biosciences) and then analysed on a FACS Vantage SE Flow Cytometer fitted with an Automatic Cell Deposition Unit. […] Positively stained cells were sorted as single cells into 96-well plates, containing Complete Medium containing 500 μg ml^−1 Zeocin™ and allowed to expand before reanalysis for receptor expression via antibody and ligand binding studies.
All steps of the protocol are carried out at 4° C. and with pre-cooled reagents. The cell pellet is resuspended in 10 volumes of buffer A2 containing 50 mM N-2-hydroxyethylpiperazine-N′-2-ethanesulfonic acid (HEPES) (pH 7.40) supplemented with […] leupeptin (acetyl-leucyl-leucyl-arginal; Sigma L2884), 25 μg/ml bacitracin (Sigma B0125), 1 mM ethylenediamine tetra-acetic acid (EDTA), 1 mM phenylmethylsulfonyl fluoride (PMSF) and 2×10e-6M pepstain A (Sigma). The cells are then homogenised by 2×15 second bursts in a 1 litre glass Waring blender, followed by centrifugation at 500 g for 20 minutes. The supernatant is then spun at 48,000 g for 30 minutes. The pellet is resuspended in 4 volumes of buffer A2 by vortexing for 5 seconds, followed by homogenisation in a Dounce homogeniser (10-15 strokes). At this point the preparation is aliquoted into polypropylene tubes and stored at −70° C. […]
The plate is then incubated on a shaker at room temperature for 30 minutes followed by centrifugation for 5 minutes at 1500 rpm. The plate is read between 3 and 6 hours after completion of centrifuge run in a Wallac Microbeta counter on a 1 minute normalised tritium count protocol. Data is analysed using a 4-parameter logistic equation. Basal activity used as minimum i.e. histamine not added to well.

Protein sequences, listed by entry. Tags and fused reporters are not part of them. Lines headed by an entry give the natural chain unless they say otherwise; changes in a name come on top.
UniProt Q9Y5N1: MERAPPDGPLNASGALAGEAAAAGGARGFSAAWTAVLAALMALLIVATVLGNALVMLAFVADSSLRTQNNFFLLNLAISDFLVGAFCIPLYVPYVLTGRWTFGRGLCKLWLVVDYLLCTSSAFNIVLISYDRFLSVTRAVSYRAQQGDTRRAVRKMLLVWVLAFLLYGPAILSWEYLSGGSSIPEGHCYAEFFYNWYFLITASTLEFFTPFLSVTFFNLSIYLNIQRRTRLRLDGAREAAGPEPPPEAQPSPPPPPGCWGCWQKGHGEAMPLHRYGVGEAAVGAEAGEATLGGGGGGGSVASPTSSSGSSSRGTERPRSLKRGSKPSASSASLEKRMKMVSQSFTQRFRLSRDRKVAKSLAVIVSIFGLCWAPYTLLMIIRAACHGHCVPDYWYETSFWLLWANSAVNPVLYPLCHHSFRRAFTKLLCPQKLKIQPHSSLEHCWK

Compound | pKb | other results
C[C@@H]1CN(C(=O)c2ccc(OCCCN3CCCCC3)cc2)C[C@H](C)N1 [Example E51] | > 8.5 | pKb (listed as Example E51): > 7.5
Cl.O=C(c1ccc(OCCCN2CCCCC2)cc1C(F)(F)F)N1CCN(c2ccncc2)CC1 [Example E52] | > 8.5 | pKb (listed as Example E52): > 7.5
Cl.N#Cc1ccc(N2CCN(C(=O)c3ccc(OCCCN4CCCCC4)cc3C(F)(F)F)CC2)nc1 [Example E53] | > 8.5 | pKb (listed as Example E53): > 7.5
Cl.O=C(c1ccc(OCCCN2CCCCC2)cc1C(F)(F)F)N1CCN(c2ccccc2)CC1 [Example E54] | > 7.5 | –
N#Cc1cccc(C(=O)N2CCN(C(=O)c3ccc(OCCCN4CCCCC4)cc3)CC2)c1 [Example E61] | > 8.5 | pKb (listed as Example E61): > 7.5
CCCN(CCC)S(=O)(=O)c1ccc(C(=O)N2CCN(C(=O)c3ccc(OCCCN4CCCCC4)cc3)CC2)cc1 [Example E62] | > 7.5 | –
O=C(c1ccc(OCCCN2CCCCC2)cc1)N1CCN(C(=O)c2cccnc2)CC1 [Example E63] | > 8.5 | pKb (listed as Example E63): > 7.5
O=C(c1ccc(OCCCN2CCCCC2)cc1)N1CCN(C(=O)c2ccc(C(F)(F)F)nc2)CC1 [Example E64] | > 8.5 | pKb (listed as Example E64): > 7.5
O=C(c1ccc(OCCCN2CCCCC2)cc1)N1CCN(C(=O)c2cnc3ccccc3n2)CC1 [Example E65] | > 8.5 | pKb (listed as Example E65): > 7.5
Cc1noc(C)c1C(=O)N1CCN(C(=O)c2ccc(OCCCN3CCCCC3)cc2)CC1 [Example E69] | > 7.5 | –
N#Cc1ccccc1C(=O)N1CCCN(C(=O)c2ccc(OCCCN3CCCCC3)cc2)CC1 [Example E76] | > 7.5 | –
O=C(c1ccc(OCCCN2CCCCC2)cc1)N1CCCN(C(=O)N2CCOCC2)CC1 [Example E77] | > 7.5 | –
O=C(c1ccc(Cl)cc1)N1C[C@@H]2C[C@H]1CN2C(=O)c1ccc(OCCCN2CCCCC2)cc1 [Example E78] | > 8.5 | pKb (listed as Example E78): > 7.5
O=C(c1ccc(OCCCN2CCCCC2)cc1)N1C[C@@H]2C[C@H]1CN2C(=O)N1CCCC1 [Example E80] | > 8.5 | pKb (listed as Example E80): > 7.5
O=C(c1ccc(OCCCN2CCCCC2)cc1)N1C[C@@H]2C[C@H]1CN2C(=O)N1CCOCC1 [Example E81] | > 7.5 | –
O=C(c1ccccc1)N1CCN(C(=O)c2ccc(OCCCN3CCCCC3)cc2)CC1 [Example E83] | > 7.5 | –
O=C(c1ccc(Cl)cc1)N1CCN(C(=O)c2ccc(OCCCN3CCCCC3)cc2)CC1 [Example E84] | > 8.5 | pKb (listed as Example E84): > 7.5
O=C(c1ccc(OCCCN2CCCCC2)cc1)N1CCN(C(=O)c2cccc(Cl)c2)CC1 [Example E85] | > 8.5 | pKb (listed as Example E85): > 7.5

Compound | pKb | other results
O=C(c1ccc(OCCCN2CCCCC2)cc1)N1CCN(C(=O)c2ccc(C(F)(F)F)cc2)CC1 [Example E86] | > 8.5 | pKb (listed as Example E86): > 7.5
O=C(c1ccc(OCCCN2CCCCC2)cc1)N1CCN(C(=O)c2cccc(C(F)(F)F)c2)CC1 [Example E87] | > 7.5 | –
O=C(c1ccc(OCCCN2CCCCC2)cc1)N1CCN(C(=O)C2CCCCCC2)CC1 [Example E89, 1-[4-(3-Piperidin-1-ylpropoxy)benzoyl]-4-(cycloheptanecarbonyl)-piperazine Hydrochloride] | > 7.5 | –
O=C(c1ccncc1)N1CCN(C(=O)c2ccc(OCCCN3CCCCC3)cc2)CC1 [Example E90] | > 7.5 | –
O=C(c1ccc(OCCCN2CCCCC2)cc1)N1CCN(C(=O)C2CCOCC2)CC1 [Example E96] | > 8.5 | pKb (listed as Example E96): > 7.5
CC(C(=O)N1CCN(C(=O)c2ccc(OCCCN3CCCCC3)cc2)CC1)c1ccccc1 (centres unmarked) [Example E97] | > 7.5 | –
O=C(c1ccc(OCCCN2CCCCC2)cc1)N1CCN(C(=O)C2CCc3ccccc3C2)CC1 (centres unmarked) [Example E98] | > 8.5 | pKb (listed as Example E98): > 7.5
CC(C)(C(=O)N1CCN(C(=O)c2ccc(OCCCN3CCCCC3)cc2)CC1)c1ccccc1 [Example E99] | > 8.5 | pKb (listed as Example E99): > 7.5
O=C(c1ccc(OCCCN2CCCCC2)cc1)N1CCN(C(=O)N2CCOCC2)CC1 [Example E114] | > 7.5 | –
O=C(c1cccc(Cl)c1)N1CCN(C(=O)c2ccc(OCCCN3CCCCC3)cc2C(F)(F)F)CC1 [Example E117] | > 8.5 | pKb (listed as Example E117): > 7.5
O=C(c1ccc(OCCCN2CCCCC2)cc1C(F)(F)F)N1CCN(C(=O)N2CCCC2)CC1 [Example E118] | > 8.5 | pKb (listed as Example E118): > 7.5
Cl.O=C(c1ccc(C(F)(F)F)nc1)N1CCN(C(=O)c2ccc(OCCCN3CCCCC3)cc2C(F)(F)F)CC1 [Example E120] | > 7.5 | –
Cl.O=C(c1ccc(OCCCN2CCCCC2)cc1C(F)(F)F)N1CCN(C(=O)C2CCOCC2)CC1 [Example E122] | > 8.5 | pKb (listed as Example E122): > 7.5
CC(C)N1CCC(Oc2ccc(C(=O)N3CCN(C(=O)c4cccc(Cl)c4)CC3)cc2)CC1 [Example E127] | > 7.5 | –
CC(C)N1CCC(Oc2ccc(C(=O)N3CCN(C(=O)c4ccc(C(F)(F)F)nc4)CC3)cc2)CC1 [Example E129] | > 8.5 | pKb (listed as Example E129): > 7.5
CC(C)N1CCC(Oc2ccc(C(=O)N3CCN(C(=O)C4CCOCC4)CC3)cc2)CC1 [Example E131] | > 8.5 | pKb (listed as Example E131): > 7.5
O=C(c1ccc(OC2CCN(C3CCC3)CC2)cc1)N1CCN(C(=O)c2cccc(Cl)c2)CC1 [Example E134] | > 8.5 | pKb (listed as Example E134): > 7.5

Source: US20060052597A1, “Aryloxyalkylamine derivatives as h3 receptor ligands” (priority 2002, published 2006)
